One experiment addresses HSF1 (UniProt Q00613). The experiment in a line: DAPPL (digital affinity profiling via proximity ligation, sequencing). To be noted: 10 mM Tris-HCl pH 7.5, 50 mM NaCl, 1 mM DTT, 4% glycerol, room temperature, 30 min; GST-TFs on glutathione beads, 16-mer random dsDNA library, 0.1% …; high values mean tight binding; double strand, one strand shown; scale: fold enrichment (6-mer frequency, TF over GST control).

Chains of the proteins cited; added tags and fusions are not shown. Lines headed by an entry give the natural chain unless they say otherwise; changes in a name come on top.
UniProt Q00613: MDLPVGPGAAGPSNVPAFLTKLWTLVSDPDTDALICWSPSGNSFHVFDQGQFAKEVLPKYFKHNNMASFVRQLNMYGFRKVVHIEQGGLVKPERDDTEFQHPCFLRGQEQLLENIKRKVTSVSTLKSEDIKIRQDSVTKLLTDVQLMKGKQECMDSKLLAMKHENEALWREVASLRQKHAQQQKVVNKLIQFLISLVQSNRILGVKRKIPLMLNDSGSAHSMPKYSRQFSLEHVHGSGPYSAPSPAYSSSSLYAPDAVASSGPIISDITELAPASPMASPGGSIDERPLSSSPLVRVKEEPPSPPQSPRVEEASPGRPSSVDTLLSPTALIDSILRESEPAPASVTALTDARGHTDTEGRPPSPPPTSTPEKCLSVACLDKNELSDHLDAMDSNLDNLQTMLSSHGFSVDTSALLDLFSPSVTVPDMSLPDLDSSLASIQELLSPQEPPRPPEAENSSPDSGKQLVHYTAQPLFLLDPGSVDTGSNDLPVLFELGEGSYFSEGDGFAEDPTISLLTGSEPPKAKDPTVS

In a further experiment the target is T1, ELF2 (UniProt Q15723).
T1 sequence: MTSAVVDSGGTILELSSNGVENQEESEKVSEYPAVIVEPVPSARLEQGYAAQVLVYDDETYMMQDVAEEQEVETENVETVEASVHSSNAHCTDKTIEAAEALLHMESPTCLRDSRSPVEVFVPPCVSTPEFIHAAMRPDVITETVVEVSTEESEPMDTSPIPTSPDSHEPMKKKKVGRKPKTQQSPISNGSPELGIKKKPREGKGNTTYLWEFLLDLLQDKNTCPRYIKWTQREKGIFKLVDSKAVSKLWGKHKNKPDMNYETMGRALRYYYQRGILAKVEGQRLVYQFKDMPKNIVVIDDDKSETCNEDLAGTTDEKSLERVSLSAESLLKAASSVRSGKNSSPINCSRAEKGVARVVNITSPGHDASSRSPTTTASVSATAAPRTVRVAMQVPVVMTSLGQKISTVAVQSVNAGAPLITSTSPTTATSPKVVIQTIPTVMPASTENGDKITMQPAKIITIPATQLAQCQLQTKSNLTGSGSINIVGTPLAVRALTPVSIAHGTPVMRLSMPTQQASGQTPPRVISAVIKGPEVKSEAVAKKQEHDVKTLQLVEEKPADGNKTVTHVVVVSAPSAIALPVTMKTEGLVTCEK
The experiment is described as above. To be noted: 10 mM Tris-HCl pH 7.5, 50 mM NaCl, 1 mM DTT, 4% glycerol, room temperature, 30 min; GST-TFs on glutathione beads, 16-mer random dsDNA library, 0.1% …; high values mean tight binding; double strand, one strand shown; scale: fold enrichment (6-mer frequency, TF over GST control).

The list shows a part of the results, in another mix than the full data. For part of these data: At the low end of the ranking the order means little. The list shows a part of the results. For part of these data: Construct or isoform of the protein are uncertain.

Turning to GTCAAA, the results for the binding signal in the experiment with HSF1 and in the experiment with ELF2 were 0.785 and 0.905, respectively.
The like results for GGCTAC were, in that order, 0.873 and 1.13.
The like results for CGGTTC were, in that order, 0.882 and 1.51.
For CTGCGG the same measures were 0.954 and 1.15.
Regarding GATTGC, the binding signal with HSF1 is 0.909; in the experiment with ELF2, 0.938.
For CTGCTT the same measures were 1.53 and 1.76.

For the origin of these results see PMC7862700.
